PubChem BioAssay AID1259254, NCATS – 2017

Aim: 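Genome-wide screen for genes that prevent DNA re-replication in cancer cells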 (primary screen)
Cells: human HCT116 colorectal cancer cells
Knock-down reagent: single siRNA against human genes
Timing: 3 days
Detection: 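Imaged Hoechst DNA stain sorts each cell into a cycle phase by DNA amount; per plate, G2 fraction set to 0% for non-targeting and 100% for GMNN siRNA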
Reading the numbers: G2 robust z-score and G2 cells, % of GMNN control: higher = more G2 cells, more excess DNA replication
Call rule: 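Active siRNAs have a G2 robust z of 5 or more median absolute deviations over the median, which in these data means about 38% or higher of GMNN control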
The whole screen tested about 59,000 reagents; below is a random part of them. Over the whole deposit, about 1,550 (2.6%) got an active call. 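G2 share is only a proxy for re-replication; each gene was hit by three separate siRNAs, and active genes were retested.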 Entries without a mark were called inactive. The numbers tell different reagents against one gene apart. Further read-outs or replicates are left out here. Not stated in the record: the amount of reagent.

NEK8 (GeneID 284086) #1: G2 robust z-score = 0.858; G2 cells, % of GMNN control = 9.01
NEK8 (GeneID 284086) #2: G2 robust z-score = -0.844; G2 cells, % of GMNN control = -2.97
NEK8 (GeneID 284086) #3: G2 robust z-score = 0.227; G2 cells, % of GMNN control = 4.57
ATP8B1 (GeneID 5205) #1: G2 robust z-score = -0.884; G2 cells, % of GMNN control = -3.26
ATP8B1 (GeneID 5205) #2: G2 robust z-score = 0.198; G2 cells, % of GMNN control = 4.36
ATP8B1 (GeneID 5205) #3: G2 robust z-score = -0.552; G2 cells, % of GMNN control = -0.915
SCT (GeneID 6343) #1: G2 robust z-score = -0.122; G2 cells, % of GMNN control = 2.11
SCT (GeneID 6343) #2: G2 robust z-score = 2.09; G2 cells, % of GMNN control = 17.7
SCT (GeneID 6343) #3: G2 robust z-score = 7.3 (active); G2 cells, % of GMNN control = 54.3
FHIP1B (GeneID 84067) #1: G2 robust z-score = -0.999; G2 cells, % of GMNN control = -4.06
FHIP1B (GeneID 84067) #2: G2 robust z-score = -0.462; G2 cells, % of GMNN control = -0.284
FHIP1B (GeneID 84067) #3: G2 robust z-score = -0.359; G2 cells, % of GMNN control = 0.44
NPHP1 (GeneID 4867) #1: G2 robust z-score = 0.928; G2 cells, % of GMNN control = 9.5
NPHP1 (GeneID 4867) #2: G2 robust z-score = 0.715; G2 cells, % of GMNN control = 8
NPHP1 (GeneID 4867) #3: G2 robust z-score = 4.94; G2 cells, % of GMNN control = 37.7
CYP27C1 (GeneID 339761) #1: G2 robust z-score = -0.987; G2 cells, % of GMNN control = -3.97
CYP27C1 (GeneID 339761) #2: G2 robust z-score = 0.481; G2 cells, % of GMNN control = 6.35
CYP27C1 (GeneID 339761) #3: G2 robust z-score = -0.932; G2 cells, % of GMNN control = -3.59
LUM (GeneID 4060) #1: G2 robust z-score = 0.0283; G2 cells, % of GMNN control = 3.17
LUM (GeneID 4060) #2: G2 robust z-score = -0.88; G2 cells, % of GMNN control = -3.23
LUM (GeneID 4060) #3: G2 robust z-score = -0.826; G2 cells, % of GMNN control = -2.84
SMCP (GeneID 4184) #1: G2 robust z-score = 0.537; G2 cells, % of GMNN control = 6.74
SMCP (GeneID 4184) #2: G2 robust z-score = -0.716; G2 cells, % of GMNN control = -2.07
SMCP (GeneID 4184) #3: G2 robust z-score = -0.528; G2 cells, % of GMNN control = -0.75
RRP12 (GeneID 23223) #1: G2 robust z-score = 0.143; G2 cells, % of GMNN control = 3.98
RRP12 (GeneID 23223) #2: G2 robust z-score = -0.537; G2 cells, % of GMNN control = -0.812
RRP12 (GeneID 23223) #3: G2 robust z-score = -0.401; G2 cells, % of GMNN control = 0.146
CD276 (GeneID 80381) #1: G2 robust z-score = 1.1; G2 cells, % of GMNN control = 10.7
CD276 (GeneID 80381) #2: G2 robust z-score = -1.04; G2 cells, % of GMNN control = -4.34
CD276 (GeneID 80381) #3: G2 robust z-score = -0.604; G2 cells, % of GMNN control = -1.28
